These results are taken from paper PMC5833739.

Assay [1] concerns the target T1, endogenous RFXANK (HEK293T) (human (endogenous in HEK293T)) (UniProt O14593).
T1 sequence: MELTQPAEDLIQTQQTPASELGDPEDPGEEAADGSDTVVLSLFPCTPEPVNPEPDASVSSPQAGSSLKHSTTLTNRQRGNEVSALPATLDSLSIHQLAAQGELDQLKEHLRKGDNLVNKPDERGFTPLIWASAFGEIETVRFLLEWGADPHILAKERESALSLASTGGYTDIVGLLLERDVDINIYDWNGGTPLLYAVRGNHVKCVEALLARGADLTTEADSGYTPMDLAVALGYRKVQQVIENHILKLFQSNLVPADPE
The experiment in a line: co-IP; HEK293T lysates after transfection; capture on anti-RFXANK-coated Dynabeads Protein G overnight at 4 °C; lysis buffer 30 mM Tris-HCl pH 7.5, 120 mM NaCl, 1% glycerol, 0.5% NP-40; Western blot. Background: A western blot detects proteins with antibodies after separation by electrophoresis.

In assay [2] the target is T2, RFXANK-myc-FLAG (human) (UniProt O14593).
T2 sequence: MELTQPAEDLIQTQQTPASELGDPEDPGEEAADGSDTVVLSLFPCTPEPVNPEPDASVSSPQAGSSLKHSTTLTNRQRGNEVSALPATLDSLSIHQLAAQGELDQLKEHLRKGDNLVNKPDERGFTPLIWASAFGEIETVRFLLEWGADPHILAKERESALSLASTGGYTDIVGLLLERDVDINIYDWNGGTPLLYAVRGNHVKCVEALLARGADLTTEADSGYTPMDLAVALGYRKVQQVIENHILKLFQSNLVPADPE
The description is as above.

For assay [3], the target named is Caspase-2^C303A-mCherry (catalytically inactive caspase-2 fused to mCherry) (human). As to the kind of experiment: co-IP; HEK293T lysates after transfection; capture on anti-RFP-coated Dynabeads Protein G overnight at 4 °C; lysis buffer 30 mM Tris-HCl pH 7.5, 120 mM NaCl, 1% glycerol, 0.5% NP-40; Western blot.

These are yes or no findings as the source states them, for the method shown. In cells and extracts the contact can be indirect. A result given as binding can be weak or reduced; the word gives no strength. For some of these results: Sequences can lack the tags named with a protein.

On to “Caspase-2^C303A-mCherry (catalytically inactive caspase-2 fused to mCherry) (human) (enzyme)”, for which the binding entry in assay [1] and in assay [2] was “binds” each time.

B1: ANK1-4-GFP (truncated RFXANK containing ankyrin repeats 1-4) (domain or fragment, UniProt O14593 88-219)
chain: TLDSLSIHQLAAQGELDQLKEHLRKGDNLVNKPDERGFTPLIWASAFGEIETVRFLLEWGADPHILAKERESALSLASTGGYTDIVGLLLERDVDINIYDWNGGTPLLYAVRGNHVKCVEALLARGADLTTE
Consider B1, for which, in assay [3], the binding entry is reported as “binds”.

B2: RFXANK-myc-FLAG (protein, UniProt O14593-1 1-260)
chain: MELTQPAEDLIQTQQTPASELGDPEDPGEEAADGSDTVVLSLFPCTPEPVNPEPDASVSSPQAGSSLKHSTTLTNRQRGNEVSALPATLDSLSIHQLAAQGELDQLKEHLRKGDNLVNKPDERGFTPLIWASAFGEIETVRFLLEWGADPHILAKERESALSLASTGGYTDIVGLLLERDVDINIYDWNGGTPLLYAVRGNHVKCVEALLARGADLTTEADSGYTPMDLAVALGYRKVQQVIENHILKLFQSNLVPADPE
As to B2, in assay [3], the binding result is “binds”.
